In the supplement of paper PMC4604168 (melanoma cell lines):
The other results are listed elsewhere or left out. Single values are uncertain, as repeats are few or missing.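 The apoptosis fraction was the count of cleaved-PARP antibody-stained nuclei relative to all DNA-stained nuclei, imaged in 1,536-well plates. Screening doses were set so most cells survived, and baseline and induced cleaved-PARP levels vary greatly across cell lines.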

Assays:
Test in all cases: cleaved PARP positive nuclei fraction relative to DMSO control; melanoma cells; higher = more apoptosis
Conditions in all cases: library dose: low library concentration; 72 h
MZ2-MEL = system: MZ2-MEL
MeWo = system: MeWo
RPMI7951 = system: RPMI7951
RVH-421 = system: RVH-421
SkMel28 = system: SkMel28
SkMel2 = system: SkMel2
SkMel30 = system: SkMel30
SkMel5 = system: SkMel5
UACC257 = system: UACC257
UACC62 = system: UACC62

| Structure (SMILES) | cleaved PARP positive nuclei fraction (MZ2-MEL) [%] | cleaved PARP positive nuclei fraction (MeWo) [%] | cleaved PARP positive nuclei fraction (RPMI7951) [%] | cleaved PARP positive nuclei fraction (RVH-421) [%] | cleaved PARP positive nuclei fraction (SkMel28) [%] | cleaved PARP positive nuclei fraction (SkMel2) [%] | cleaved PARP positive nuclei fraction (SkMel30) [%] | cleaved PARP positive nuclei fraction (SkMel5) [%] | cleaved PARP positive nuclei fraction (UACC257) [%] | cleaved PARP positive nuclei fraction (UACC62) [%] |
| --- | --- | --- | --- | --- | --- | --- | --- | --- | --- | --- |
| Cc1cn(-c2cc(NC(=O)c3ccc(C)c(Nc4nccc(-c5cccnc5)n4)c3)cc(C(F)(F)F)c2)cn1 [nilotinib] + C/C(O)=C(\C#N)C(=O)Nc1cc(Br)ccc1Br [LFM-A13] (first compound 0.2 µM, partner dose 2 µM) | 69.9 | 144 | 91 | 84.4 | 200 | 96.5 | 164 | 74.2 | 95.8 | 98.8 |
| Cn1cc(C2=C(c3cn(C4CCN(Cc5ccccn5)CC4)c4ccccc34)C(=O)NC2=O)c2ccccc21 [Enzastaurin] + N#Cc1c(O)c2c(-c3ccc(-c4ccccc4O)cc3)csc2[nH]c1=O [A769662] (first compound 0.8 µM, partner dose 2 µM) | 129 | 67.7 | 69 | 52 | 88.3 | 284 | 94.2 | 67.2 | 88.5 | 91.7 |
| N.N.[Cl][Pt][Cl] [cisplatin] + O=C(CCCCCCC(=O)Nc1ccccc1)NO [vorinostat] (first compound 1.6 µM, partner dose 0.08 µM) | 83.8 | 86.3 | 105 | 101 | 74.7 | 49 | 60.5 | 110 | 71.4 | 101 |
| Cn1sc(=O)n(Cc2ccccc2)c1=O + C/C(O)=C(\C#N)C(=O)Nc1cc(Br)ccc1Br [LFM-A13] (first compound 0.4 µM, partner dose 2 µM) | 99.2 | 95.7 | 72.4 | 125 | 86.6 | 117 | 163 | 40.3 | 105 | 72.1 |
| O=c1[nH]nc(Sc2ncc([N+](=O)[O-])s2)n1-c1ccc2c(c1)OCCO2 + C/C(O)=C(\C#N)C(=O)Nc1cc(Br)ccc1Br [LFM-A13] (first compound 0.2 µM, partner dose 2 µM) | 47.5 | 35.5 | 777 | 36.7 | 127 | 65.4 | 77.8 | 230 | 265 | 95.1 |
| Nc1ccn([C@@H]2O[C@H](CO)[C@@H](O)C2(F)F)c(=O)n1 [gemcitabine] + C/C(O)=C(\C#N)C(=O)Nc1cc(Br)ccc1Br [LFM-A13] (first compound 0.0004 µM, partner dose 2 µM) | 183 | 29.9 | 248 | 123 | 32.5 | 50.2 | 40.8 | 77.9 | 35.5 | 96.6 |
| O=C(O)c1ccc2c(c1)nc(Nc1cccc(Cl)c1)c1ccncc12 + O=C(Oc1ccc([N+](=O)[O-])cc1)N1CCC(C(O)(c2ccc3c(c2)OCO3)c2ccc3c(c2)OCO3)CC1 [JZL184] (first compound 0.4 µM, partner dose 1 µM) | 149 | 88.8 | 37.9 | 130 | 61.5 | 82.5 | 81.9 | 144 | 37.2 | 120 |
| N.N.[Cl][Pt][Cl] [cisplatin] + c1cc(-c2cnn3cc(-c4ccc(OCCN5CCCCC5)cc4)cnc23)ccn1 [Dorsomorphin] (first compound 1.6 µM, partner dose 0.4 µM) | 76.6 | 161 | 71.2 | 134 | 96.3 | 227 | 88.5 | 83.8 | 53 | 76 |
| Cn1cc(C2=C(c3cn(C4CCN(Cc5ccccn5)CC4)c4ccccc34)C(=O)NC2=O)c2ccccc21 [Enzastaurin] + COc1ccc2c(c1)CCC1C2CCC2(C)C(NCCCCCCN3C(=O)C=CC3=O)CCC12 [U73122] (first compound 0.8 µM, partner dose 0.4 µM) | 70.1 | 40 | 87.8 | 46.9 | 76.7 | 149 | 83.8 | 236 | 206 | 32.3 |
| C[As](C)SC[C@H](NC(=O)CC[C@H](N)C(=O)O)C(=O)NCC(=O)O [Darinaparsin] + Cn1cncc1[C@@](N)(c1ccc(Cl)cc1)c1ccc2c(c1)c(-c1cccc(Cl)c1)cc(=O)n2C [tipifarnib] (first compound 0.4 µM, partner dose 0.01 µM) | 99.7 | 135 | 130 | 47.5 | 231 | 153 | 82.8 | 64.6 | 104 | 64.1 |

Record cards (already shown). Values in the order: cleaved PARP positive nuclei fraction (MZ2-MEL) [%] | cleaved PARP positive nuclei fraction (MeWo) [%] | cleaved PARP positive nuclei fraction (RPMI7951) [%] | cleaved PARP positive nuclei fraction (RVH-421) [%] | cleaved PARP positive nuclei fraction (SkMel28) [%] | cleaved PARP positive nuclei fraction (SkMel2) [%] | cleaved PARP positive nuclei fraction (SkMel30) [%] | cleaved PARP positive nuclei fraction (SkMel5) [%] | cleaved PARP positive nuclei fraction (UACC257) [%] | cleaved PARP positive nuclei fraction (UACC62) [%]
C[As](C)SC[C@H](NC(=O)CC[C@H](N)C(=O)O)C(=O)NCC(=O)O [Darinaparsin] + Cn1cncc1[C@@](N)(c1ccc(Cl)cc1)c1ccc2c(c1)c(-c1cccc(Cl)c1)cc(=O)n2C [tipifarnib] (first compound 0.4 µM, partner dose 0.01 µM) is entered as 99.7 | 135 | 130 | 47.5 | 231 | 153 | 82.8 | 64.6 | 104 | 64.1
Cn1sc(=O)n(Cc2ccccc2)c1=O + C/C(O)=C(\C#N)C(=O)Nc1cc(Br)ccc1Br [LFM-A13] (first compound 0.4 µM, partner dose 2 µM) is entered as 99.2 | 95.7 | 72.4 | 125 | 86.6 | 117 | 163 | 40.3 | 105 | 72.1
